Reference: PMC7819943, “Rice protein-binding microarrays: a tool to detect cis-acting elements near promoter regions in rice”
The other results are listed elsewhere or left out.

Sequences of proteins named here, by UniProt entry; tags and fusion partners are left off.
UniProt Q0JBA9, entry or part of it: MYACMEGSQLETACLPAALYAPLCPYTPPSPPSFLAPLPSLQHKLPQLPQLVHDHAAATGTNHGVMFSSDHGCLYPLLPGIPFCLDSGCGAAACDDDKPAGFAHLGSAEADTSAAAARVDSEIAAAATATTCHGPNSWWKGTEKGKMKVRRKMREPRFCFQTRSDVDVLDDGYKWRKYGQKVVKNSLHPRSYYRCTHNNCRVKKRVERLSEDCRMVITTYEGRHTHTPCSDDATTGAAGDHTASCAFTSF

The sequences below were run against OsWRKY34 (Oryza sativa, UniProt Q0JBA9 1-250) (assay: protein-binding microarray (RPBM); PBS, 2% BSA, 51.3 ng/ul salmon testes DNA, 50 uM zinc acetate, 200 nM TF, 25 C, 1 h; high values mean tight binding). Settings: protein: recombinant; tags: N-terminal polyhistidine and DsRed monomer fusion (pET32a); label: CyDye5-dUTP incorporated in the synthesized complementary strand; 3' TTTTT single-stranded linker to array surface; dsDNA, one strand shown.
Summary of the method: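 For the binding signal, per-feature fluorescence intensity was read in arbitrary units on an Axon 4000B scanner. Before scanning, a 2% BSA-blocked custom Agilent array made double-stranded with Cy5-dUTP was washed after 1 h at 25 °C with 200 nM protein and 50 µM zinc acetate. The proteins were Ni–NTA-purified transcription factors with N-terminal polyhistidine and DsRed fusions, expressed in E. coli BL21-CodonPlus.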
“CGTCGTCGTCGTCGTTCGTCCCAATCTCCGCATCCCTCCACGGAGTCACCTAGTGCAG” was tested, and the binding signal was 10200 fluorescence intensity (a.u.). For “TTGGTTGGGTGGTATATTTGTGGTGGTGGAGGCGGTCAGCCGGAGTCACCTAGTGCAG”, the binding signal was 8300 fluorescence intensity (a.u.). “CCAAGCACTACTACTCATCACTAGCTCACACACAATTGCACGGAGTCACCTAGTGCAG” was tested, and the binding signal was 9500 fluorescence intensity (a.u.). For “ATACTGTCATCAATTGATTACTCTGACCGTCGATCACACACGGAGTCACCTAGTGCAG”, the binding signal was 8280 fluorescence intensity (a.u.). With “GGAAACACCAAAATGGTCTATACTGTCTGTCAACACACTTCGGAGTCACCTAGTGCAG” the binding signal was 9070 fluorescence intensity (a.u.). In the case of “CAATTATTCTCTCCTCCCCACTTGTTGACCAAAGCCCATCCGGAGTCACCTAGTGCAG”, the binding signal is reported as 9450 fluorescence intensity (a.u.). “CCCCTTCGTTGAGTCATCGCCACACCTCCTTCCCGCTTTGCGGAGTCACCTAGTGCAG” was tested, and the binding signal was 8100 fluorescence intensity (a.u.). For “GTCATCGGTGAGCCATCCAGCTACAGCCCGTCACAGGTATCGGAGTCACCTAGTGCAG”, the binding signal was 9910 fluorescence intensity (a.u.). In the case of “CCGTCGGCCCCATTATATGTGCCATTTGTACGTTTCTATTCGGAGTCACCTAGTGCAG”, the binding signal is reported as 8900 fluorescence intensity (a.u.). In the case of “GGTGAGCTCTCTTTAATGCATATACACAGCAGCCTATTGCCGGAGTCACCTAGTGCAG”, the binding signal is reported as 8440 fluorescence intensity (a.u.). In the case of “TCATCTCTGCCTCTAGATTTGGACCCAAATACCGCGACTTCGGAGTCACCTAGTGCAG”, the binding signal is reported as 10800 fluorescence intensity (a.u.). With “CAGGGTTGCGTGGAGGGTGAAGGGGATCATTCAGGTGAGACGGAGTCACCTAGTGCAG” the binding signal was 8140 fluorescence intensity (a.u.). With “AACAATCACCTAGGCTAAATGTTACTTCCTCCGTTTCACACGGAGTCACCTAGTGCAG” the binding signal was 9190 fluorescence intensity (a.u.). “ATACGTTGTAGCTTGTTGTTGTCGCGAGGACGCACACGCGCGGAGTCACCTAGTGCAG” was tested, and the binding signal was 8450 fluorescence intensity (a.u.). For “TCGTTTATGGATTTAACCACGGTTTCTTGTATTTGTTTCTCGGAGTCACCTAGTGCAG”, the binding signal was 11400 fluorescence intensity (a.u.). With “ATGTACTATGTATTCTCCAGCTGCCGTACTGTGCACGGATCGGAGTCACCTAGTGCAG” the binding signal was 8290 fluorescence intensity (a.u.). “GCACACCACAGTACTATTCAACAACATTACTTTTTTGCCTCGGAGTCACCTAGTGCAG” was tested, and the binding signal was 11300 fluorescence intensity (a.u.). In the case of “TGTCGAGAGGCAGGGTTGTACCGAGGTCGTAGGTTTTTCTCGGAGTCACCTAGTGCAG”, the binding signal is reported as 9260 fluorescence intensity (a.u.). In the case of “GTCAGTCAACACCCTGCAACTGTTGTCGCTCAAAAAACCGCGGAGTCACCTAGTGCAG”, the binding signal is reported as 8380 fluorescence intensity (a.u.). With “ACTCCGCTATAAAAATTTCTCTCCCCGCACTCTCTACGCGCGGAGTCACCTAGTGCAG” the binding signal was 8550 fluorescence intensity (a.u.). In the case of “CCTTTCTTTTCTCTTTATCTTTATCTTTATCTTTATCCTTCGGAGTCACCTAGTGCAG”, the binding signal is reported as 13200 fluorescence intensity (a.u.). In the case of “TAATAGTAGTTTAGCATGTGTTGTTTCCTCATGTTCGTCACGGAGTCACCTAGTGCAG”, the binding signal is reported as 10800 fluorescence intensity (a.u.). For “AGCCACCCGCCACCCGCCGCCGCTCGCCGCCCGCCGCCGACGGAGTCACCTAGTGCAG”, the binding signal was 9260 fluorescence intensity (a.u.).
